{"source": "PubChem BioAssay AID652243 (Drosophila RNAi Screening Center, 2013)", "screen": "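Fly genes required for human androgen receptor driven transcription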 (primary screen)", "cells": "Drosophila S2R+ cells", "reagents": "long dsRNA against Drosophila genes", "timing": "72 h (48 h, then 24 h hormone)", "challenge": "synthetic androgen R1881 at 10 nM for 24 h", "measured": "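Firefly light from an androgen-responsive reporter and Renilla control light per well, raw and unnormalised, for each of two replicates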", "reading the numbers": "firefly reporter light: higher = more light from androgen-responsive reporter; Renilla control light: higher = more constitutive control signal (cell number, transfection)", "active means": "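Across duplicate plates, a knock-down whose log firefly/Renilla ratio shifted a set fold down or up from the GFP/LacZ control mean was a hit; the downward cut appears as both 1.5 and 3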", "calls": "active = hit: reporter lowered or raised; inactive = no hit", "note": "The screen tested about 24,000 reagents; shown is an unselected part of those that have a named target and a result. Over the whole deposit, 246 (1%) were called active. 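Plates not normalised; calls are printed but the firefly/Renilla ratio behind them is not deposited; fold cut for lowering reported inconsistently.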 Raw values are not corrected between plates. The numbers tell different reagents against one gene apart. No sequences are given here. Not given: the amount of reagent."}
{"gene": "mRpL3", "reagent no.": 1, "firefly reporter light, replicate 1": 5.77e5, "firefly reporter light, replicate 2": 4.96e5, "Renilla control light, replicate 1": 3.37e6, "Renilla control light, replicate 2": 3.10e6, "Call": "inactive"}
{"gene": "REG", "reagent no.": 1, "firefly reporter light, replicate 1": 5.03e5, "firefly reporter light, replicate 2": 3.68e5, "Renilla control light, replicate 1": 3.24e6, "Renilla control light, replicate 2": 2.62e6, "Call": "inactive"}
{"gene": "dx", "reagent no.": 1, "firefly reporter light, replicate 1": 87312, "firefly reporter light, replicate 2": 86924, "Renilla control light, replicate 1": 1.73e6, "Renilla control light, replicate 2": 2.16e6, "Call": "inactive"}
{"gene": "dx", "reagent no.": 2, "firefly reporter light, replicate 1": 4.64e5, "firefly reporter light, replicate 2": 3.13e5, "Renilla control light, replicate 1": 3.68e5, "Renilla control light, replicate 2": 4.32e5, "Call": "inactive"}
{"gene": "EMC2B", "reagent no.": 1, "firefly reporter light, replicate 1": 1.80e5, "firefly reporter light, replicate 2": 1.85e5, "Renilla control light, replicate 1": 1.99e6, "Renilla control light, replicate 2": 2.22e6, "Call": "inactive"}
{"gene": "rk", "reagent no.": 1, "firefly reporter light, replicate 1": 2.13e5, "firefly reporter light, replicate 2": 2.46e5, "Renilla control light, replicate 1": 1.94e6, "Renilla control light, replicate 2": 2.51e6, "Call": "inactive"}
{"gene": "CapaR", "reagent no.": 1, "firefly reporter light, replicate 1": 9.24e5, "firefly reporter light, replicate 2": 1.26e6, "Renilla control light, replicate 1": 1.42e6, "Renilla control light, replicate 2": 1.25e6, "Call": "inactive"}
{"gene": "Ilp1", "reagent no.": 1, "firefly reporter light, replicate 1": 3.19e5, "firefly reporter light, replicate 2": 2.65e5, "Renilla control light, replicate 1": 2.43e6, "Renilla control light, replicate 2": 1.97e6, "Call": "inactive"}
{"gene": "Hrb87F", "reagent no.": 1, "firefly reporter light, replicate 1": 34861, "firefly reporter light, replicate 2": 17260, "Renilla control light, replicate 1": 2.88e5, "Renilla control light, replicate 2": 1.27e5, "Call": "inactive"}
{"gene": "Hrb87F", "reagent no.": 2, "firefly reporter light, replicate 1": 3.16e5, "firefly reporter light, replicate 2": 3.42e5, "Renilla control light, replicate 1": 1.30e6, "Renilla control light, replicate 2": 1.30e6, "Call": "inactive"}

Just “Renilla control light, replicate 1”, for 3 of the entries above:
REG: 3.24e6
dx #1: 1.73e6
dx #2: 3.68e5

Additional reagents:
{"gene": "mip130", "reagent no.": 1, "firefly reporter light, replicate 1": 4.20e5, "firefly reporter light, replicate 2": 1.98e5, "Renilla control light, replicate 1": 4.65e6, "Renilla control light, replicate 2": 2.69e6, "Call": "inactive"}
{"gene": "mip130", "reagent no.": 2, "firefly reporter light, replicate 1": 5.17e5, "firefly reporter light, replicate 2": 5.21e5, "Renilla control light, replicate 1": 5.84e5, "Renilla control light, replicate 2": 3.66e5, "Call": "inactive"}
{"gene": "Proc-R", "reagent no.": 1, "firefly reporter light, replicate 1": 1.68e5, "firefly reporter light, replicate 2": 2.47e5, "Renilla control light, replicate 1": 2.49e6, "Renilla control light, replicate 2": 3.53e6, "Call": "inactive"}
{"gene": "CG18549", "reagent no.": 1, "firefly reporter light, replicate 1": 46708, "firefly reporter light, replicate 2": 49952, "Renilla control light, replicate 1": 6.48e5, "Renilla control light, replicate 2": 5.97e5, "Call": "inactive"}
{"gene": "CG18549", "reagent no.": 2, "firefly reporter light, replicate 1": 4.42e5, "firefly reporter light, replicate 2": 4.46e5, "Renilla control light, replicate 1": 1.20e6, "Renilla control light, replicate 2": 1.28e6, "Call": "inactive"}
{"gene": "Dpm3", "reagent no.": 1, "firefly reporter light, replicate 1": 7.34e5, "firefly reporter light, replicate 2": 8.49e5, "Renilla control light, replicate 1": 1.46e6, "Renilla control light, replicate 2": 1.74e6, "Call": "inactive"}
{"gene": "Xxylt", "reagent no.": 1, "firefly reporter light, replicate 1": 9.84e5, "firefly reporter light, replicate 2": 8.41e5, "Renilla control light, replicate 1": 9.60e5, "Renilla control light, replicate 2": 1.17e6, "Call": "inactive"}
{"gene": "CG10470", "reagent no.": 1, "firefly reporter light, replicate 1": 83632, "firefly reporter light, replicate 2": 95000, "Renilla control light, replicate 1": 1.28e6, "Renilla control light, replicate 2": 1.23e6, "Call": "inactive"}
{"gene": "CG8708", "reagent no.": 1, "firefly reporter light, replicate 1": 1.05e6, "firefly reporter light, replicate 2": 6.77e5, "Renilla control light, replicate 1": 1.22e6, "Renilla control light, replicate 2": 1.08e6, "Call": "inactive"}
{"gene": "CG8708", "reagent no.": 2, "firefly reporter light, replicate 1": 5.93e5, "firefly reporter light, replicate 2": 3.78e5, "Renilla control light, replicate 1": 1.57e6, "Renilla control light, replicate 2": 7.83e5, "Call": "inactive"}
{"gene": "CG13073", "reagent no.": 1, "firefly reporter light, replicate 1": 1.08e5, "firefly reporter light, replicate 2": 1.05e5, "Renilla control light, replicate 1": 1.43e6, "Renilla control light, replicate 2": 1.28e6, "Call": "inactive"}
{"gene": "CG13073", "reagent no.": 2, "firefly reporter light, replicate 1": 8.10e5, "firefly reporter light, replicate 2": 5.95e5, "Renilla control light, replicate 1": 8.11e5, "Renilla control light, replicate 2": 9.59e5, "Call": "inactive"}
